PubChem BioAssay AID652243, Drosophila RNAi Screening Center | 2013
In all, the deposit lists about 24,000 reagents; this is an unselected part of those that have a named target and a result. In the full data, 246 (1%) were called active. 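Plates not normalised; calls are printed but the firefly/Renilla ratio behind them is not deposited; fold cut for lowering reported inconsistently.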 Raw values vary from plate to plate and are shown uncorrected. A plus sign joins genes that one reagent is predicted to hit. Not stated in the record: the amount of reagent.

- Aim: 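Knock-downs that decrease or increase androgen receptor reporter signal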 (primary screen)
- Cells: Drosophila S2R+ cells
- Reagent: long dsRNA against Drosophila genes
- Timing: 72 h (48 h, then 24 h hormone)
- Conditions: synthetic androgen R1881 at 10 nM for 24 h
- Detection: 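Firefly light from an androgen-responsive reporter and Renilla control light per well, raw and unnormalised, for each of two replicates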
- Direction: firefly reporter light: higher = more light from androgen-responsive reporter; Renilla control light: higher = more constitutive control signal (cell number, transfection)
- Active means: 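Across duplicate plates, a knock-down whose log firefly/Renilla ratio shifted a set fold down or up from the GFP/LacZ control mean was a hit; the downward cut appears as both 1.5 and 3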
- Meaning of the calls: active = hit: reporter lowered or raised; inactive = no hit

| firefly reporter light, replicate 1 | firefly reporter light, replicate 2 | Renilla control light, replicate 1 | Renilla control light, replicate 2 | Call | target gene | DRSC id |
| --- | --- | --- | --- | --- | --- | --- |
| 1.33e5 | 2.58e5 | 9.72e5 | 1.64e6 | inactive | Ir100a (Ionotropic receptor 100a) | DRSC14329 |
| 3.25e5 | 4.09e5 | 1.10e6 | 9.93e5 | inactive | Ir100a (Ionotropic receptor 100a) | DRSC25881 |
| 3.10e5 | 2.47e5 | 2.54e6 | 2.67e6 | inactive | Cpr78Ca (Cuticular protein 78Ca) | DRSC11651 |
| 1.94e5 | 1.89e5 | 2.42e6 | 3.19e6 | inactive | CG12661 | DRSC17864 |
| 5.08e5 | 3.78e5 | 1.83e6 | 1.36e6 | inactive | CG12661 | DRSC29244 |
| 1.47e5 | 68858 | 1.56e6 | 1.03e6 | inactive | Liprin-beta | DRSC09795 |
| 6.98e5 | 7.90e5 | 1.18e6 | 1.10e6 | inactive | Liprin-beta | DRSC23339 |
| 5.28e5 | 5.52e5 | 1.08e6 | 1.06e6 | inactive | Liprin-beta | DRSC28695 |
| 2.76e5 | 2.73e5 | 3.75e6 | 2.24e6 | inactive | Rrp45 | DRSC20198 |
| 8.58e5 | 8.20e5 | 1.46e6 | 1.46e6 | inactive | Rrp45 | DRSC29319 |
| 1.56e5 | 1.03e5 | 2.35e6 | 2.35e6 | inactive | HtrA2 (HTRA2-related serine protease) | DRSC16425 |
| 3.24e5 | 7.72e5 | 4.12e5 | 1.09e6 | inactive | HtrA2 (HTRA2-related serine protease) | DRSC28553 |
| 2.73e5 | 2.23e5 | 1.87e6 | 1.51e6 | inactive | CRIF (CR6-interacting factor) | DRSC11811 |
| 1.73e5 | 2.69e5 | 5.04e5 | 6.35e5 | inactive | CRIF (CR6-interacting factor) | DRSC26514 |
| 1.82e5 | 1.29e5 | 2.02e6 | 1.77e6 | inactive | ninaG | DRSC16102 |
| 1.86e5 | 1.24e5 | 5.74e5 | 3.50e5 | inactive | CG31910 + snoRNA:Me28S-G2743 (retired record) | DRSC00946 |
| 5.09e5 | 4.76e5 | 3.69e6 | 2.49e6 | inactive | CG9919 | DRSC20219 |
| 6.73e5 | 6.38e5 | 1.38e6 | 1.49e6 | inactive | lncRNA:bxd (bithoraxoid) | DRSC13176 |
| 9.37e5 | 8.78e5 | 1.76e6 | 1.77e6 | inactive | lncRNA:bxd (bithoraxoid) | DRSC28062 |
| 7.49e5 | 7.30e5 | 1.71e6 | 2.06e6 | inactive | lncRNA:bxd (bithoraxoid) | DRSC39127 |
| 1.08e6 | 1.07e6 | 2.53e6 | 2.28e6 | inactive | CG17002 | DRSC04978 |
| 3.33e5 | 2.07e5 | 4.60e5 | 5.31e5 | inactive | CG17002 | DRSC27573 |
| 1.01e5 | 1.69e5 | 2.50e6 | 2.12e6 | inactive | Nepl12 (Neprilysin-like 12) | DRSC16411 |
| 7.34e5 | 5.54e5 | 3.97e5 | 3.62e5 | inactive | pigs (pickled eggs) | DRSC17472 |
| 3.61e5 | 4.26e5 | 2.48e6 | 1.60e6 | inactive | pigs (pickled eggs) | DRSC18334 |
| 3.59e5 | 3.28e5 | 2.84e6 | 3.08e6 | inactive | pigs (pickled eggs) | DRSC18335 |
| 1.01e6 | 1.09e6 | 1.76e6 | 1.88e6 | inactive | tea (telomere ends associated) | DRSC06110 |
| 2.80e5 | 2.98e5 | 1.64e6 | 1.92e6 | inactive | tea (telomere ends associated) | DRSC06236 |
| 79984 | 42115 | 5.26e5 | 3.45e5 | inactive | Acf (ATP-dependent chromatin assembly factor large subunit) | DRSC14101 |
| 4.63e5 | 4.64e5 | 1.42e6 | 1.45e6 | inactive | Acf (ATP-dependent chromatin assembly factor large subunit) | DRSC29797 |
| 1.06e6 | 7.45e5 | 1.21e6 | 1.06e6 | inactive | Hsf (Heat shock factor) | DRSC07443 |
| 2.55e5 | 3.14e5 | 4.10e5 | 6.30e5 | inactive | Hsf (Heat shock factor) | DRSC27700 |
| 3.96e5 | 4.70e5 | 3.09e6 | 2.94e6 | inactive | Cp38 (Chorion protein 38) | DRSC18453 |

The list goes on (4 carried over from the part before).
| firefly reporter light, replicate 1 | firefly reporter light, replicate 2 | Renilla control light, replicate 1 | Renilla control light, replicate 2 | Call | target gene | DRSC id |
| --- | --- | --- | --- | --- | --- | --- |
| 4.63e5 | 4.64e5 | 1.42e6 | 1.45e6 | inactive | Acf (ATP-dependent chromatin assembly factor large subunit) | DRSC29797 |
| 1.06e6 | 7.45e5 | 1.21e6 | 1.06e6 | inactive | Hsf (Heat shock factor) | DRSC07443 |
| 2.55e5 | 3.14e5 | 4.10e5 | 6.30e5 | inactive | Hsf (Heat shock factor) | DRSC27700 |
| 3.96e5 | 4.70e5 | 3.09e6 | 2.94e6 | inactive | Cp38 (Chorion protein 38) | DRSC18453 |
| 1.23e5 | 1.56e5 | 2.82e6 | 2.25e6 | inactive | CHES-1-like (Checkpoint suppressor 1-like) | DRSC18447 |
| 83392 | 64336 | 3.40e5 | 4.34e5 | inactive | Nt5b (5' nucleotidase B) | DRSC19976 |
| 3.87e5 | 4.19e5 | 3.01e6 | 2.84e6 | inactive | Nt5b (5' nucleotidase B) | DRSC19977 |
| 6.14e5 | 5.50e5 | 4.24e6 | 3.67e6 | inactive | Nt5b (5' nucleotidase B) | DRSC19978 |
| 8.71e5 | 8.24e5 | 1.24e6 | 1.39e6 | inactive | Nt5b (5' nucleotidase B) | DRSC22588 |
| 5.02e5 | 5.37e5 | 1.16e6 | 1.48e6 | inactive | Nt5b (5' nucleotidase B) | DRSC28223 |
| 97712 | 1.07e5 | 1.10e6 | 1.04e6 | inactive | CG14958 | DRSC08417 |
| 2.46e5 | 2.42e5 | 2.55e6 | 2.38e6 | inactive | teq (Tequila) | DRSC10298 |
| 2.88e5 | 1.08e5 | 2.59e6 | 1.18e6 | inactive | teq (Tequila) | DRSC11301 |
| 4.91e5 | 5.11e5 | 3.40e6 | 3.05e6 | inactive | teq (Tequila) | DRSC11302 |
| 22550 | 36170 | 5.58e5 | 3.96e5 | inactive | Ibf1 (Insulator binding factor 1) | DRSC16419 |
| 1.35e5 | 89852 | 6.24e5 | 2.79e5 | inactive | lncRNA:CR42491 + RpL22 | DRSC25025 |
| 1.48e5 | 1.04e5 | 1.25e6 | 9.81e5 | inactive | Timp (Tissue inhibitor of metalloproteases) | DRSC17082 |
| 3.52e5 | 3.60e5 | 4.05e6 | 2.84e6 | inactive | spri (sprint) | DRSC17984 |
| 3.06e5 | 3.25e5 | 3.84e6 | 2.64e6 | inactive | spri (sprint) | DRSC17985 |
| 4.38e5 | 4.59e5 | 2.75e6 | 2.72e6 | inactive | spri (sprint) | DRSC17986 |
| 3.28e5 | 3.57e5 | 3.24e6 | 3.18e6 | inactive | spri (sprint) | DRSC17989 |
| 6.31e5 | 9.33e5 | 1.18e6 | 2.08e6 | inactive | spri (sprint) | DRSC22927 |
| 9.19e5 | 7.60e5 | 1.05e6 | 1.13e6 | inactive | spri (sprint) | DRSC28814 |
| 1.48e5 | 94686 | 2.37e6 | 2.16e6 | inactive | CG17738 | DRSC15257 |
| 3.62e5 | 5.08e5 | 1.11e6 | 1.57e6 | inactive | CG17738 | DRSC28474 |
| 5.80e5 | 6.60e5 | 1.57e6 | 1.42e6 | inactive | CG14237 | DRSC23239 |
| 7.55e5 | 7.88e5 | 1.70e6 | 1.82e6 | inactive | CG13921 | DRSC08390 |
| 7.50e5 | 9.18e5 | 6.87e5 | 7.21e5 | inactive | CG13921 | DRSC25529 |
| 5.39e5 | 4.03e5 | 2.75e6 | 1.89e6 | inactive | CG12849 | DRSC04129 |
| 72656 | 82625 | 7.82e5 | 7.05e5 | inactive | CG31038 | DRSC15051 |
| 1.29e5 | 1.13e5 | 2.18e6 | 2.91e6 | inactive | CG31038 | DRSC16326 |
| 1.65e5 | 1.60e5 | 2.33e6 | 2.47e6 | inactive | CG31038 | DRSC16327 |
| 5.35e5 | 8.01e5 | 6.75e5 | 8.19e5 | inactive | CG31038 | DRSC25740 |
| 9.38e5 | 9.80e5 | 1.70e6 | 1.54e6 | inactive | Cand1 (Cullin-associated and neddylation-dissociated 1) | DRSC01992 |
| 1.24e5 | 1.72e5 | 2.40e6 | 2.88e6 | inactive | Alg12 (Alg12 alpha-1,6-mannosyltransferase) | DRSC16416 |
| 2.69e5 | 1.58e5 | 1.76e6 | 1.25e6 | inactive | CG14072 | DRSC02375 |
| 2.31e5 | 1.81e5 | 2.84e6 | 2.46e6 | inactive | CG3610 | DRSC15502 |
| 1.68e5 | 2.27e5 | 8.28e5 | 8.81e5 | inactive | CG3610 | DRSC27339 |
| 3.02e5 | 2.63e5 | 4.93e6 | 3.65e6 | inactive | CG14777 | DRSC18563 |
| 50194 | 96820 | 1.07e6 | 1.13e6 | inactive | CG32944 | DRSC12138 |
| 80783 | 93816 | 1.53e6 | 1.58e6 | inactive | CG32944 | DRSC12341 |
| – | – | – | – | inactive | CG32944 | DRSC37081 |
| 1.37e5 | 93485 | 2.43e6 | 1.97e6 | inactive | Mst84B (Male-specific transcript 84B) | DRSC12579 |
| 2.90e5 | 2.65e5 | 4.76e5 | 7.52e5 | inactive | Mst84B (Male-specific transcript 84B) | DRSC27767 |
| 88565 | 1.05e5 | 6.00e5 | 8.38e5 | inactive | CG14341 | DRSC00371 |
